Results are given in words; binding and its absence hold for the method and conditions named. Binding can be weak; no strength is given.

Chains of the proteins cited; added tags and fusions are not shown. Lines headed by an entry give the natural chain unless they say otherwise; changes in a name come on top.
UniProt Q382W6: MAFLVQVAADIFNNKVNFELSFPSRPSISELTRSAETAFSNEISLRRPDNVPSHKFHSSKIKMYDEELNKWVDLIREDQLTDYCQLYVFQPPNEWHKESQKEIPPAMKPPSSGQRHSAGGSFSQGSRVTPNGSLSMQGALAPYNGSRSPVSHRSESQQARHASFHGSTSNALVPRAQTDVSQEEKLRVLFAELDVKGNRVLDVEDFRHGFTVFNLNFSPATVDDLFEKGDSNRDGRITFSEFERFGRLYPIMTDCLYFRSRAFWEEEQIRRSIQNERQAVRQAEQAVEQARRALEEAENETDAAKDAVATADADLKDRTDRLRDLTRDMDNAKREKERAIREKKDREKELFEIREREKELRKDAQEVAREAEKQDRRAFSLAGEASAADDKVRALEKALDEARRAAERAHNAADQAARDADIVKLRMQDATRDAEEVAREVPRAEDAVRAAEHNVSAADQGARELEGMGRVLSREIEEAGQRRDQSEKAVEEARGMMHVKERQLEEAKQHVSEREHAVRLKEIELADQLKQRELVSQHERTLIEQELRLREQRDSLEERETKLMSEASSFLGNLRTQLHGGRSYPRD

This assay addresses BILBO2 (Tb927.6.3240), full-length (Trypanosoma brucei (Tb927 genomic DNA)) (UniProt Q584W7). Nature of the assay: two-hybrid; direct tests on SC-W-L-H (minus histidine) medium, photos after 3 days; BILBO2 and its domains as bait (pGBKT7).

As to BILBO1 (from UniProt Q382W6), the binding entry was “binds”.

(Values after publication PMC8360560.)
